Experimental data as given in PubChem BioAssay AID248 (DTP/NCI, 2004).
The list shows only some results of the screen, not a fair sample: it is rich in T/C values a quarter to a half above the control, in often repeated tests (any T/C) and in doses without a T/C. Other doses and runs of a compound stand elsewhere. T/C is the treated group as % of the vehicle group. Some entries give survivors of the animals treated and no T/C: the source holds a T/C of zero for them, seemingly a mark for toxic or unscored doses. Some doses without a T/C left all or most animals alive at the check, yet need not have been tolerated: survival well below the control is almost never listed, so the zero probably covers shortened survival too. Counts of survivors are from the toxicity check (mostly the fifth day) where no day follows; animals may have died later. Schedule codes are those of the source, read here as Q, the interval in days (D) or hours (H), X, the number of doses. Some doses were run more than once; the results are listed from low to high. For survival time, the PubChem record calls one and a half times the control and up active, and a quarter to a half above the control has no call in these data; cut-offs in other NCI protocols can differ.

Test system: L1210 leukemia ip in BDF1 mice, survival T/C
Experiment: NCI In Vivo Anticancer Drug Screen. Data for tumor model L1210 Leukemia (intraperitoneal) in B6D2F1 (BDF1) mice
Settings: T/C endpoint: mean survival time, higher T/C = longer survival
[1] = dose: 400.0 mg/kg/injection, schedule: Q01DX009 (ip), vehicle: Klucel (hydroxypropylcellulose) (HPC)
[2] = dose: 400.0 mg/kg/injection, schedule: Q04DX003 (ip), vehicle: saline
[3] = dose: 200.0 mg/kg/injection, schedule: Q04DX003 (ip), vehicle: saline
[4] = dose: 200.0 mg/kg/injection, schedule: Q01DX001 (ip), vehicle: saline

CC(=O)Oc1ccccc1[N+](=O)[O-]
survivor count [1]: 0 of 6

COc1ccc(/C=C/[N+](=O)[O-])cc1O
survivor count (dose: 100.0 mg/kg/injection, schedule: Q01DX009 (ip), vehicle: saline): 3 of 6 | survivor count [2]: 0 of 6

O=C(/C=N\O)c1ccncc1
survivor count [1]: 0 of 6

O=[N+]([O-])c1ccc(-c2ccc(Br)cc2)cc1
survivor count (dose: 400.0 mg/kg/injection, schedule: Q01DX009 (ip), vehicle: saline with Tween-80): 5 of 6

CCOP(=O)(OC(C)CC)OC(C)CC (stereo not drawn)
survivor count (dose: 400.0 mg/kg/injection, schedule: Q04DX003 (ip), vehicle: carboxymethylcellulose (CMC)): 4 of 6

COC(=O)COc1ccc(Cl)c2ccccc12
survivor count (dose: 100.0 mg/kg/injection, schedule: Q04DX002 (ip), vehicle: Klucel (hydroxypropylcellulose) (HPC)): 3 of 3

CC(=O)OC1COC(n2cnc3c(=O)[nH]cnc32)C(OC(C)=O)C1OC(C)=O (stereo not drawn)
T/C (dose: 50.0 mg/kg/injection, schedule: Q01DX001 (ip), vehicle: saline): 129 % of control

[Cu+2].[NH-]C(CCC(N)=O)C(=O)O.[NH-]C(CCC(N)=O)C(=O)O (stereo not drawn)
survivor count (dose: 100.0 mg/kg/injection, schedule: Q04DX003 (ip), vehicle: saline): 0 of 6 | survivor count [3]: 0 of 6 | survivor count [2]: 0 of 6

Cc1cccc2c(N=Nc3ccccc3[N+](=O)[O-])c(O)[nH]c12
survivor count [4]: 6 of 6

CC(=O)OC1(c2ccccc2)OC(=O)C(C)(C)c2ccccc21 (stereo not drawn)
survivor count (dose: 400.0 mg/kg/injection, schedule: Q01DX001 (ip), vehicle: saline with Tween-80): 3 of 6

CCCCN1CC2CCCC1O2 (stereo not drawn)
survivor count [4]: 0 of 4 | survivor count (dose: 400.0 mg/kg/injection, schedule: Q01DX001 (ip), vehicle: saline): 0 of 4

C[C@]12C(=O)OC(=O)[C@H]1[C@H]1CC[C@@H]2C1
survivor count (dose: 400.0 mg/kg/injection, schedule: Q01DX009 (ip), vehicle: acetone): 0 of 6

Nc1nc2ncc(C(=O)O)nc2c(=O)[nH]1
survivor count [3]: 2 of 6 and 3 of 6

Cc1oc2c(O)ccc(N=Nc3cccc([N+](=O)[O-])c3)c2c1C
survivor count (dose: 100.0 mg/kg/injection, schedule: Q01DX009 (ip), vehicle: Klucel (hydroxypropylcellulose) (HPC)): 6 of 6

O=C(NCCN1CCCCC1)C(O)(c1ccccc1)C1CCCCC1 (stereo not drawn)
survivor count (dose: 300.0 mg/kg/injection, schedule: Q01DX001 (ip), vehicle: other): 0 of 6

Clc1ccc([S][Pb]([c]2ccccc2)([c]2ccccc2)[c]2ccccc2)cc1
survivor count (dose: 400.0 mg/kg/injection, schedule: Q04DX002 (ip), vehicle: gum acacia): 3 of 3

Cc1cccc(C)c1NC(=O)Oc1ccc(F)cc1Cl
survivor count [1]: 3 of 6

CN(C)c1ccc(/C=N\NC(=O)N/N=C/c2ccc(N(C)C)cc2)cc1
survivor count (dose: 200.0 mg/kg/injection, schedule: Q01DX001 (ip), vehicle: Klucel (hydroxypropylcellulose) (HPC)): 6 of 6 | survivor count (dose: 400.0 mg/kg/injection, schedule: Q01DX001 (ip), vehicle: Klucel (hydroxypropylcellulose) (HPC)): 6 of 6
